# PubChem BioAssay AID1259308 | NCATS – 2017
# Screen: 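Candidate targets for better recombinant protein yield in mammalian cells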 (primary screen)
# Cells: human HEK293 embryonic kidney cells stably expressing firefly luciferase (HEK-CMV-Luc2-Hygro)
# Reagents: single siRNA against human genes, 0.8 pmol siRNA per well
# Time to read-out: 72 h
# Measurement: 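Luciferase light (ONE-Glo) measured on one replicate plate set and viability (CellTiter-Glo) on the other, scaled to a negative control siRNA, with robust z-scores and luciferase per cell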
# Scale: total luciferase, z-score and total luciferase, % of control: higher = more reporter protein produced
# Call rule: 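Active when the median/MAD z-score for overall luciferase is greater than 3; a gene was taken forward for validation with new siRNAs if at least two of its three siRNAs passed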
# Meaning of the calls: active = raised luciferase; inactive = no rise
# This is an unselected part of about 59,000 reagents tested. Of all reagents, about 1,510 (2.6%) got an active call. 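Calls use total luciferase alone and ignore viability, so some active siRNAs may act by altering cell number.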 Unmarked entries are inactive. Reagents against one gene are numbered here. Not all columns of the deposit are shown. No sequences are given here.
target gene,siRNA no.,"total luciferase, z-score","total luciferase, % of control"
SEMA3D,1,1.71,116
SEMA3D,2,0.417,90.2
SEMA3D,3,0.713,96.1
TRIB2,1,1.32,108
TRIB2,2,0.174,85.4
TRIB2,3,0.474,91.3
ELOVL5,1,-0.528,71.4
ELOVL5,2,3.12 (active),144
ELOVL5,3,-0.349,74.9
CMPK2,1,-0.451,72.9
CMPK2,2,2.22,126
CMPK2,3,0.219,86.2
PTGR1,1,0.973,101
PTGR1,2,-1.22,57.6
PTGR1,3,0.278,87.4
LOXHD1,1,1.02,102
LOXHD1,2,0.451,90.9
LOXHD1,3,-0.15,78.9
PSORS1C1,1,-1.58,50.4
PSORS1C1,2,-0.115,79.6
PSORS1C1,3,1.03,102
EML2,1,1.63,114
EML2,2,0.368,89.2
EML2,3,-0.333,75.3
PCSK7,1,0.281,87.5
PCSK7,2,0.2,85.9
PCSK7,3,-0.424,73.5
MIP,1,0.472,91.3
MIP,2,-1.76,47
MIP,3,-0.481,72.3
TAF1,1,-0.718,67.6
TAF1,2,-0.505,71.8
TAF1,3,2.04,122
COA3,1,0.794,97.7
COA3,2,0.78,97.4
COA3,3,1.34,109
EGLN2,1,1.05,103
EGLN2,2,-0.772,66.5
EGLN2,3,1.72,116
SLC7A13,1,-1.25,57
SLC7A13,2,-0.0864,80.2
SLC7A13,3,-0.548,71
NUP42,1,-0.759,66.8
NUP42,2,-0.492,72.1
NUP42,3,-1.19,58.2
GMPR2,1,-0.468,72.6
GMPR2,2,0.0168,82.2
GMPR2,3,0.421,90.3
ILRUN,1,-1.67,48.6
ILRUN,2,1.08,103
ILRUN,3,2.34,128
ERBIN,1,1.81,118
ERBIN,2,-0.762,66.7
ERBIN,3,-0.559,70.8
TLNRD1,1,-0.142,79.1
TLNRD1,2,-1.64,49.2
TLNRD1,3,0.494,91.7

Reprinted from the listing (3 entries):
target gene,siRNA no.,"total luciferase, z-score","total luciferase, % of control"
MIP,1,0.472,91.3
MIP,2,-1.76,47
MIP,3,-0.481,72.3
